# PubChem BioAssay AID1259254 | NCATS | 2017
# Aim: 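Gene knock-downs that lead to re-replication, shown by excess G2 DNA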 (primary screen)
# Cell system: human HCT116 colorectal cancer cells
# Knock-down reagent: single siRNA against human genes
# Time to read-out: 3 days
# Read-out: 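Imaged Hoechst DNA stain sorts each cell into a cycle phase by DNA amount; per plate, G2 fraction set to 0% for non-targeting and 100% for GMNN siRNA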
# Scale: G2 robust z-score and G2 cells, % of GMNN control: higher = more G2 cells, more excess DNA replication; raw share of cells in G2: higher = larger share of cells with G2 DNA content
# Hit rule: 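Active siRNAs have a G2 robust z of 5 or more median absolute deviations over the median, which in these data means about 38% or higher of GMNN control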
# This is one part, drawn at random, of about 59,000 reagents tested. About 1,550 of all reagents (2.6%) count as active. 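G2 share is only a proxy for re-replication; each gene was hit by three separate siRNAs, and active genes were retested.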 Raw values are not corrected between plates. Unmarked entries are inactive. Reagents against one gene are numbered here. Not stated in the record: the amount of reagent.
gene,siRNA no.,G2 robust z-score,"G2 cells, % of GMNN control",raw share of cells in G2 (%)
LOC401589 (GeneID 401589),1,-0.684,-1.85,3.14
LOC401589 (GeneID 401589),2,0.197,4.35,5.24
LOC401589 (GeneID 401589),3,-0.416,0.0404,4.81
RPL10 (GeneID 6134),1,1.74,15.2,11.4
RPL10 (GeneID 6134),2,4.23,32.7,17.1
RPL10 (GeneID 6134),3,1.68,14.8,8.69
IL20 (GeneID 50604),1,-0.346,0.536,4.06
IL20 (GeneID 50604),2,0.192,4.32,6.18
IL20 (GeneID 50604),3,-0.0202,2.83,4.14
HSH2D (GeneID 84941),1,2.3,19.2,12.2
HSH2D (GeneID 84941),2,-0.000646,2.96,3.93
HSH2D (GeneID 84941),3,-0.195,1.6,3.43
GALR2 (GeneID 8811),1,-0.178,1.71,5.57
GALR2 (GeneID 8811),2,2.05,17.4,11.3
GALR2 (GeneID 8811),3,6.31 (active),47.3,19.9
PAK3 (GeneID 5063),1,2.94,23.7,13.4
PAK3 (GeneID 5063),2,-1.01,-4.11,4.02
PAK3 (GeneID 5063),3,-0.857,-3.06,2.94
PRDM14 (GeneID 63978),1,0.125,3.84,7.24
PRDM14 (GeneID 63978),2,0.61,7.26,6.91
PRDM14 (GeneID 63978),3,3.84,30,15.1
SAMD13 (GeneID 148418),1,-0.0355,2.72,4.74
SAMD13 (GeneID 148418),2,-1.25,-5.82,1.12
SAMD13 (GeneID 148418),3,1.91,16.4,8.79

Not a retest: an excerpt of the list.
gene,siRNA no.,G2 robust z-score,"G2 cells, % of GMNN control",raw share of cells in G2 (%)
GALR2 (GeneID 8811),2,2.05,17.4,11.3
GALR2 (GeneID 8811),3,6.31 (active),47.3,19.9
PAK3 (GeneID 5063),1,2.94,23.7,13.4
PAK3 (GeneID 5063),2,-1.01,-4.11,4.02
PAK3 (GeneID 5063),3,-0.857,-3.06,2.94
PRDM14 (GeneID 63978),1,0.125,3.84,7.24
PRDM14 (GeneID 63978),2,0.61,7.26,6.91
PRDM14 (GeneID 63978),3,3.84,30,15.1
SAMD13 (GeneID 148418),1,-0.0355,2.72,4.74
SAMD13 (GeneID 148418),2,-1.25,-5.82,1.12

The list goes on.
gene,siRNA no.,G2 robust z-score,"G2 cells, % of GMNN control",raw share of cells in G2 (%)
EPO (GeneID 2056),1,-1.13,-4.97,3.43
EPO (GeneID 2056),2,-1.14,-5.08,3.33
EPO (GeneID 2056),3,0.354,5.46,5.6
OR7E24 (GeneID 26648),1,2.27,18.9,9.82
OR7E24 (GeneID 26648),2,-0.285,0.964,3.39
OR7E24 (GeneID 26648),3,0.301,5.09,6.2
MCCD1 (GeneID 401250),1,-0.262,1.13,5.26
MCCD1 (GeneID 401250),2,-0.0357,2.72,4.8
MCCD1 (GeneID 401250),3,0.268,4.86,5.44
SKAP2 (GeneID 8935),1,-0.0374,2.7,6.33
SKAP2 (GeneID 8935),2,-0.444,-0.156,3.83
SKAP2 (GeneID 8935),3,-0.783,-2.54,2.45
NAALAD2 (GeneID 10003),1,0.87,9.09,8.73
NAALAD2 (GeneID 10003),2,-1.24,-5.75,2.87
NAALAD2 (GeneID 10003),3,0.948,9.64,7.51
BSCL2 (GeneID 26580),1,0.354,5.46,5.21
BSCL2 (GeneID 26580),2,-0.572,-1.06,4.02
BSCL2 (GeneID 26580),3,0.0422,3.26,5.35
SLCO1B7 (GeneID 338821),1,-0.846,-2.99,3.79
SLCO1B7 (GeneID 338821),2,-0.687,-1.87,5.1
SLCO1B7 (GeneID 338821),3,-0.505,-0.586,4.07
MAP7D3 (GeneID 79649),1,-0.103,2.24,5.37
MAP7D3 (GeneID 79649),2,-0.755,-2.34,3.28
MAP7D3 (GeneID 79649),3,3.36,26.6,9.65
BTNL3 (GeneID 10917),1,-0.848,-3,5.29
BTNL3 (GeneID 10917),2,-1.34,-6.43,2.9
BTNL3 (GeneID 10917),3,-0.0509,2.61,4.68
C2orf72 (GeneID 257407),1,1.21,11.5,7.83
C2orf72 (GeneID 257407),2,0.335,5.32,5.1
C2orf72 (GeneID 257407),3,1.51,13.6,7.4
SIN3B (GeneID 23309),1,4.35,33.5,19.8
SIN3B (GeneID 23309),2,-0.434,-0.0883,3.83
SIN3B (GeneID 23309),3,-0.489,-0.476,4
RIOX2 (GeneID 84864),1,-0.971,-3.86,2.44
RIOX2 (GeneID 84864),2,2.37,19.6,9.15
RIOX2 (GeneID 84864),3,-0.202,1.54,3.41
CPA1 (GeneID 1357),1,-0.00606,2.92,6.58
CPA1 (GeneID 1357),2,0.295,5.04,6.69
CPA1 (GeneID 1357),3,-0.435,-0.093,3.88
NFKB1 (GeneID 4790),1,0.0586,3.38,4.8
NFKB1 (GeneID 4790),2,0.0946,3.63,6.55
NFKB1 (GeneID 4790),3,2.23,18.7,9.88
LIN28A (GeneID 79727),1,0.835,8.84,9.11
LIN28A (GeneID 79727),2,-1.24,-5.77,2.65
LIN28A (GeneID 79727),3,-0.22,1.42,4.71
